Measurements from PMC10031314.
These are yes or no findings as the source states them, for the method shown. Binding seen in cells or lysates may run through a third protein. Some results given as binding are weak or reduced against the parent protein; the word gives no strength.

Molecular target: T1, β-catenin (Hydra) (Hydra vulgaris Ind-Pune (endogenous in polyps)) (UniProt Q25100)
T1 sequence: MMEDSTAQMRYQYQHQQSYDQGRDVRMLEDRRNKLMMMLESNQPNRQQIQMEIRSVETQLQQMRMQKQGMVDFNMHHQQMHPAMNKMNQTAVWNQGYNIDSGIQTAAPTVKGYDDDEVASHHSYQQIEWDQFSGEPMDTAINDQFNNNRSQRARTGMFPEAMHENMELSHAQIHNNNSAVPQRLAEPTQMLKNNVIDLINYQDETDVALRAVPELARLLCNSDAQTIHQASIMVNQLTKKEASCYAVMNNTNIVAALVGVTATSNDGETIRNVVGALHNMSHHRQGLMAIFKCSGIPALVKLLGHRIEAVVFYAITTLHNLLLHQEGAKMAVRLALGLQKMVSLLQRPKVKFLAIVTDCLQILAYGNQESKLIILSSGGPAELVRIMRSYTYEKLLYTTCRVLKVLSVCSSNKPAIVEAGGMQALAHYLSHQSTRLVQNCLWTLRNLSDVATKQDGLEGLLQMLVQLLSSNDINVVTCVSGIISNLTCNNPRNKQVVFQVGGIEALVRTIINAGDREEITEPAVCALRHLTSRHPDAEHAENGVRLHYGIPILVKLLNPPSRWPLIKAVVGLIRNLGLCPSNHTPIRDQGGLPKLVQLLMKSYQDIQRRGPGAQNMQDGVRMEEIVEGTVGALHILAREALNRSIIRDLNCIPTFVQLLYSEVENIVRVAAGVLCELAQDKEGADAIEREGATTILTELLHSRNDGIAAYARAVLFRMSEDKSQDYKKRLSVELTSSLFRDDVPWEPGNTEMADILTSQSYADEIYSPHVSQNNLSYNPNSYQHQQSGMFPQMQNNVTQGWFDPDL
Experiment: co-IP; 700 μg Hydra polyp lysate in RIPA buffer; 5 μg α-active-β-catenin antibody overnight at 4°C, Dynabeads M-280 sheep anti-mouse IgG, three RIPA washes; Western blot with α-SETD8 antibody; normal mouse IgG as control

B1: Hydra SETD8 protein (enzyme, UniProt T2M4F1 1-269)
chain: MENHQENKLLVTKSIRSCERLEEKKESFKVDSPVKGVTNLKVKSIIKNTHQLKSNKDINQPKSIKNTTKNVQKKSSNEKVRKVCDMENRPEKVQTTITQHFQVRRSERKVKTMAKNDAKLNLEKIILSGIEDGLEVRLIEEKGRGVFTKQSLKKGDLVCEYAGDLISLKEALQREKDYEKNPELGCYMYFFDYKDKKYCVDATKETGRLGRLLNHSKTNSNVCTKLFPIGNTPHLILVAQKDIACDQELLYDYGDRSKRSIESHPWLKL
binding: binds
